This assay concerns the target Yin Yang 1 (YY1) (human (endogenous in HCC cells)) (UniProt P25490). Briefly: co-IP; 1-2 ug YY1 antibody added to 300 uL cell lysate for 30 minutes at 4°C, beads at 4°C overnight, washed three times with PBS, analysed by Western blotting; endogenous proteins of HCC cells. (Immunoblotting shows a protein as a band on a membrane.)

Chains of the proteins cited; added tags and fusions are not shown.
UniProt P25490: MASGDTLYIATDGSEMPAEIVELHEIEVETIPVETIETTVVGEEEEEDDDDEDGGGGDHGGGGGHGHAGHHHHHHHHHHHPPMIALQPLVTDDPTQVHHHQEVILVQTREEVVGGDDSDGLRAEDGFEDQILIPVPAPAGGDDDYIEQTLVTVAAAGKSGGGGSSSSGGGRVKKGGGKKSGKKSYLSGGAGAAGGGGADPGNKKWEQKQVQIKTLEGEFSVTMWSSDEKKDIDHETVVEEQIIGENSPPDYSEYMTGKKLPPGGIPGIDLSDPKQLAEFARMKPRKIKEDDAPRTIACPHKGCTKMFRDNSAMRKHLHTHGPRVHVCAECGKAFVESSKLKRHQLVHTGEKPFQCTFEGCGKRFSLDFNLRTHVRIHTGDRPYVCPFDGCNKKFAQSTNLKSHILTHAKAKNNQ
UniProt Q13547: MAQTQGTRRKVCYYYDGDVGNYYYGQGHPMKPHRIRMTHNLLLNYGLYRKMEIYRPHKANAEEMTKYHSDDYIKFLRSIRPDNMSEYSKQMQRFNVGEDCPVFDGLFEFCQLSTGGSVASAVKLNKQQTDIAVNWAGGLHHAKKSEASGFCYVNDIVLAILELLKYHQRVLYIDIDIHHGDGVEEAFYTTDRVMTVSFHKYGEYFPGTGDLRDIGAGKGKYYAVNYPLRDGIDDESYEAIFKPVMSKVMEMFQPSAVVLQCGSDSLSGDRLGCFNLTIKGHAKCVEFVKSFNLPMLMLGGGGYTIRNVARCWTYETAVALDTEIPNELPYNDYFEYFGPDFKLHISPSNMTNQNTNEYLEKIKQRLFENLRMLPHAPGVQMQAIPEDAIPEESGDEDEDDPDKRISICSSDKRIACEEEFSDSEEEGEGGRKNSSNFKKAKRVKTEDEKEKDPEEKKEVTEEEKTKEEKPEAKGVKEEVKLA

Results are given in words; binding and its absence hold for the method and conditions named. In cells and extracts the contact can be indirect. Some binding calls cover weakened binding; strength is not graded here.

Regarding HDAC1 (from UniProt Q13547 1-482), the binding result is “binds”.

The record behind these values is article PMC7445403.
